# Measurements reported in the supplement of paper PMC10849652.
# Protein sequences, listed by entry. Tags and fused reporters are not part of them. Lines headed by an entry give the natural chain unless they say otherwise; changes in a name come on top.
# UniProt Q9Y4X0: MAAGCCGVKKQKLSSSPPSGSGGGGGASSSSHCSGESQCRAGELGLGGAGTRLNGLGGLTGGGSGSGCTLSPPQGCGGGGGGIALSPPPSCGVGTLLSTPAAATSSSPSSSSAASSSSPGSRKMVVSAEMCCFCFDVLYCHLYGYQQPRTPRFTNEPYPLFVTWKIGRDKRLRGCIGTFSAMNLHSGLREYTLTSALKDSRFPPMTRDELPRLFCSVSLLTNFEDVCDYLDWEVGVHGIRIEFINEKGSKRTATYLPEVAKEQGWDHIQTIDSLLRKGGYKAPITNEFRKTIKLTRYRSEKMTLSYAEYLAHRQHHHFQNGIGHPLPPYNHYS
# UniProt Q9UPQ3: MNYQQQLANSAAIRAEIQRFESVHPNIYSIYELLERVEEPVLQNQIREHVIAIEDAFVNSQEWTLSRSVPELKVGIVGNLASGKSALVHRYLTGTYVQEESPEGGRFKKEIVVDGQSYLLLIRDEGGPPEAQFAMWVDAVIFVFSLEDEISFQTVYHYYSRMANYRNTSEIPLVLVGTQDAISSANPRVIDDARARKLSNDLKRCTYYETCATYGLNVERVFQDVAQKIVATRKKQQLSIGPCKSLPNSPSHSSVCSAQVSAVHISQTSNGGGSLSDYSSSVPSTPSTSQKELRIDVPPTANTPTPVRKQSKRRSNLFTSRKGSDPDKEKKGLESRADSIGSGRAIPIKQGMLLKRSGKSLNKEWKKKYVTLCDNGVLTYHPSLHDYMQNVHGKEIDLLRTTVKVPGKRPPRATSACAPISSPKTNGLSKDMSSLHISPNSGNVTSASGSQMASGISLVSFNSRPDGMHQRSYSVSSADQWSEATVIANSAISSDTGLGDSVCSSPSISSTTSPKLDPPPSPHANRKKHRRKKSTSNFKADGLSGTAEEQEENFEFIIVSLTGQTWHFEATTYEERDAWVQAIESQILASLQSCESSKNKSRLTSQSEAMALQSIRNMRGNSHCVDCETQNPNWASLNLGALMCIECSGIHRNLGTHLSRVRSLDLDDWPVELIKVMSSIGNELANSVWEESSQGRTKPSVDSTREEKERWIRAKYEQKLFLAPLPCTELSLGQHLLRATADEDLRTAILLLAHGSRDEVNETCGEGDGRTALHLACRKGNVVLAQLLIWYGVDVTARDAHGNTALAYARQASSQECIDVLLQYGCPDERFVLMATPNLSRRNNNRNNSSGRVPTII
# UniProt Q86V24: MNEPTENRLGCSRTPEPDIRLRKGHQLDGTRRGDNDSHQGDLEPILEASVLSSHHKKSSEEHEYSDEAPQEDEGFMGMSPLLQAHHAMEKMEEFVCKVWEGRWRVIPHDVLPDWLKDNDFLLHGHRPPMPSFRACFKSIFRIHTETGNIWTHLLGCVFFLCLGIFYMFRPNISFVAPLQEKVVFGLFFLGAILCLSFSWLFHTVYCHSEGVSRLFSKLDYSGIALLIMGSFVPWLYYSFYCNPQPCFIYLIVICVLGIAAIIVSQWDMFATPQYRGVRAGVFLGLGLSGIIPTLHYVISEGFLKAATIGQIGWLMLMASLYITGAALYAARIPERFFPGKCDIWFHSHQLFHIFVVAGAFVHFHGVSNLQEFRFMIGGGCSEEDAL
# UniProt Q9UHB7: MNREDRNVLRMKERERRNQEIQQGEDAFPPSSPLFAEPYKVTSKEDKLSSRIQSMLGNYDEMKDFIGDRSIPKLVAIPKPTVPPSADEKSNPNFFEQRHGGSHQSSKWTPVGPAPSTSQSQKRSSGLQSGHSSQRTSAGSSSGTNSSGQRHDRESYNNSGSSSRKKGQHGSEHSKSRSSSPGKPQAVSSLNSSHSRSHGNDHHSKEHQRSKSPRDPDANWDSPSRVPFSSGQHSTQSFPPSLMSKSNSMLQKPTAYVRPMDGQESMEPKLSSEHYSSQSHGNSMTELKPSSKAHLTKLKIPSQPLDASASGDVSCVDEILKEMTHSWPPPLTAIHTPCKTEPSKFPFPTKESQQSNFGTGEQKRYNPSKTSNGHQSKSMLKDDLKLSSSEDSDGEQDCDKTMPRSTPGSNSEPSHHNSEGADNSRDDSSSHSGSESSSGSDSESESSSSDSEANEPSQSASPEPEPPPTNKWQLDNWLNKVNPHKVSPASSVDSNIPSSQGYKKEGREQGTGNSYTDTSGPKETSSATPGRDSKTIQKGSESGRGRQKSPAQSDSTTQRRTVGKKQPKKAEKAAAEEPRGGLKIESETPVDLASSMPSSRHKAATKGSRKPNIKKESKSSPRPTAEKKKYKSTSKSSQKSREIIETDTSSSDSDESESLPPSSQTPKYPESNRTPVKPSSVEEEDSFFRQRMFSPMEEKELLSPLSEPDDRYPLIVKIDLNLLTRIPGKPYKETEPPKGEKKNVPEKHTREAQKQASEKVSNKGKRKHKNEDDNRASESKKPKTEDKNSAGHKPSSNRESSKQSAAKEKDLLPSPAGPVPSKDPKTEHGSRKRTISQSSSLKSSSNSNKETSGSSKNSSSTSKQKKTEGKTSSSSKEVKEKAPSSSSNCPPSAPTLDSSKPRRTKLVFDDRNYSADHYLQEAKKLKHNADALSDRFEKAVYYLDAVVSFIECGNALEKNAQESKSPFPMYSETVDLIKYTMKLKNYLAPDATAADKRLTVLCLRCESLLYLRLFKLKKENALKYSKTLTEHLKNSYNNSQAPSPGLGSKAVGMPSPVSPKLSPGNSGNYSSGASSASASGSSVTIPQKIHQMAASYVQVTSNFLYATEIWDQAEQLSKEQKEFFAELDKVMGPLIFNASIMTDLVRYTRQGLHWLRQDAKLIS
# UniProt Q9NZD4: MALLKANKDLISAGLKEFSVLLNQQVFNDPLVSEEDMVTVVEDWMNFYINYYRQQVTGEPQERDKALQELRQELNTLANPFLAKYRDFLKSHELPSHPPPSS
# UniProt O60266: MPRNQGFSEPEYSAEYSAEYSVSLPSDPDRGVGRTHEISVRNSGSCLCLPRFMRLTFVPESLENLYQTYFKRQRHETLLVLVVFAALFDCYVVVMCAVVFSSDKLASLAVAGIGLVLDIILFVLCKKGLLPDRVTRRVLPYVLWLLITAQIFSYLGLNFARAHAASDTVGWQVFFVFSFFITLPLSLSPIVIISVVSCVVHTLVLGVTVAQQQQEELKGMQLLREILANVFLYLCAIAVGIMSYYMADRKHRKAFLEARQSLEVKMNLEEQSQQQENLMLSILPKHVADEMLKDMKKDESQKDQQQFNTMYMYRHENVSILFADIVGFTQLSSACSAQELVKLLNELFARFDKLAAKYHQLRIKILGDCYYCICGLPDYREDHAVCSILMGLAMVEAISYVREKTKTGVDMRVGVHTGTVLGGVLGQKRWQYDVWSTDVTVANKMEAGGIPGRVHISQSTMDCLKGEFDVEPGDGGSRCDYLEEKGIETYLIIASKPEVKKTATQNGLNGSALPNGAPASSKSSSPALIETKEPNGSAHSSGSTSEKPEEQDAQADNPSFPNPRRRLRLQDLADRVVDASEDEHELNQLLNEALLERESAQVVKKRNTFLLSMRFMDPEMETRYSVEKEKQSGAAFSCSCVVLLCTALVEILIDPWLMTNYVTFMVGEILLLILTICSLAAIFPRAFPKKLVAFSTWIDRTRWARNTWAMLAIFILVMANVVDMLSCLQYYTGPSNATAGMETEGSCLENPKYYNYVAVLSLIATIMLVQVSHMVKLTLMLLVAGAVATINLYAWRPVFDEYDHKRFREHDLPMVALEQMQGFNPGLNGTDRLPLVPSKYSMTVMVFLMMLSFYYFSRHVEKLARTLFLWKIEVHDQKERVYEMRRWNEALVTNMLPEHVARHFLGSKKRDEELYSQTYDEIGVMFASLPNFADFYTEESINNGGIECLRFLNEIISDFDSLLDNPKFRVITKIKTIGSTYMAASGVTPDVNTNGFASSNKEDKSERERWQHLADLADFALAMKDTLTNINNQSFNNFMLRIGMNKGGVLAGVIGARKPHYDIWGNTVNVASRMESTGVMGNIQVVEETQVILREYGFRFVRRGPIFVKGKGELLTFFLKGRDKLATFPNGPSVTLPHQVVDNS
# UniProt P51648: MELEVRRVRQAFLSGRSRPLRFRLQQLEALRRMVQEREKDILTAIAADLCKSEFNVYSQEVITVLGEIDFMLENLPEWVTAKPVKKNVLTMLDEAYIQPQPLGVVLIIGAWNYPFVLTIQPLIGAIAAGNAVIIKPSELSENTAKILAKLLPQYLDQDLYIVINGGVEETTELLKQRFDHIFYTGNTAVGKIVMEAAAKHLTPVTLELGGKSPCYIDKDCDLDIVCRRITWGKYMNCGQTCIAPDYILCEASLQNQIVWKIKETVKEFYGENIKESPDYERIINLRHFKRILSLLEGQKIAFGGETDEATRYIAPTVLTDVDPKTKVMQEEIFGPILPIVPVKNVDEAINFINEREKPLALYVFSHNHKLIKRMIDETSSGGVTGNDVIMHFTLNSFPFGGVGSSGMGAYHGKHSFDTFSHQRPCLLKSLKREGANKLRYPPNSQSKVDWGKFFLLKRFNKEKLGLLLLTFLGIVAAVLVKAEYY
# UniProt P51828: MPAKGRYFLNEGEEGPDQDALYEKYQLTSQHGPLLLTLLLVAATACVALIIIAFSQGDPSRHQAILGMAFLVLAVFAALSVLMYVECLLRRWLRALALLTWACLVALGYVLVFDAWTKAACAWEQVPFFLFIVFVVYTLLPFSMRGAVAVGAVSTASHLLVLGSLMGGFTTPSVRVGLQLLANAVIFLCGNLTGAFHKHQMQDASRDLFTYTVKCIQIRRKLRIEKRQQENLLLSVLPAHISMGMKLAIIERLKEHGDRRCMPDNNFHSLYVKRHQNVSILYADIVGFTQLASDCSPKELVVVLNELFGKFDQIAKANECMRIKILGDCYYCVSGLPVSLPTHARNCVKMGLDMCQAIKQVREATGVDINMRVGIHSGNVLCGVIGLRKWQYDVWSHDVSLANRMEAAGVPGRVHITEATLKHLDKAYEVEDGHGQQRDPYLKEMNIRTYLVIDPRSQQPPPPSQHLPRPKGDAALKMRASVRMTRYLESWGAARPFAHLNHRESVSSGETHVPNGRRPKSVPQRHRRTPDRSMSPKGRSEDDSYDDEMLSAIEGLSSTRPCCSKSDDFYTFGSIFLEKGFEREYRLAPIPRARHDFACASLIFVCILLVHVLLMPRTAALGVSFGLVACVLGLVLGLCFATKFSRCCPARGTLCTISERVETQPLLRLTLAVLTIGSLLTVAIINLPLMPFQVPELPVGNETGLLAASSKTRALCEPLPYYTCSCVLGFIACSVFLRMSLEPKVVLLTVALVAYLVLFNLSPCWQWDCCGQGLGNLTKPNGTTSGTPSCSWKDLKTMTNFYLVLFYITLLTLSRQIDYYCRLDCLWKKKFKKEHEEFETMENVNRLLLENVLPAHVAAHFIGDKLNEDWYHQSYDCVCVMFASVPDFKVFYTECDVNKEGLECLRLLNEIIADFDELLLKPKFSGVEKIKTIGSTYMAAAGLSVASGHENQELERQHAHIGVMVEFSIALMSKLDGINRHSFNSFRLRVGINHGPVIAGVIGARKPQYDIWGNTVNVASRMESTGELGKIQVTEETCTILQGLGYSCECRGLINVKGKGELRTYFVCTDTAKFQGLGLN
# UniProt P09917: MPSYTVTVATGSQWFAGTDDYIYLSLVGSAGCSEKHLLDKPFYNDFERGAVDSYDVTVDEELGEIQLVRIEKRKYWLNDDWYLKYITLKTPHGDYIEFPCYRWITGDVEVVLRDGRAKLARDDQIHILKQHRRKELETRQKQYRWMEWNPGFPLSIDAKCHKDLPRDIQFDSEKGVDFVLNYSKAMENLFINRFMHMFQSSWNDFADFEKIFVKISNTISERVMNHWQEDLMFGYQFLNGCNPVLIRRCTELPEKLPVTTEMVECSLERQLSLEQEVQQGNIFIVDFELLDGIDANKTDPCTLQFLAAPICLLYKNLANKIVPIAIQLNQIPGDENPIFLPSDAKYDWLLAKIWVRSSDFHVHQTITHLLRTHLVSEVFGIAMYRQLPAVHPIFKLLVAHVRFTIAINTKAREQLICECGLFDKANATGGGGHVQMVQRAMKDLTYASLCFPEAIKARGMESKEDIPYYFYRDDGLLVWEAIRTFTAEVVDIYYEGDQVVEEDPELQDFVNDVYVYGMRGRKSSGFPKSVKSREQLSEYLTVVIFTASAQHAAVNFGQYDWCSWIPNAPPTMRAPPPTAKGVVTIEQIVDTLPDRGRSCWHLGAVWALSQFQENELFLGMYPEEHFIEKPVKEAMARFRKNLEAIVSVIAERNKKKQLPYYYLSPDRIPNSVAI
# UniProt Q86W34: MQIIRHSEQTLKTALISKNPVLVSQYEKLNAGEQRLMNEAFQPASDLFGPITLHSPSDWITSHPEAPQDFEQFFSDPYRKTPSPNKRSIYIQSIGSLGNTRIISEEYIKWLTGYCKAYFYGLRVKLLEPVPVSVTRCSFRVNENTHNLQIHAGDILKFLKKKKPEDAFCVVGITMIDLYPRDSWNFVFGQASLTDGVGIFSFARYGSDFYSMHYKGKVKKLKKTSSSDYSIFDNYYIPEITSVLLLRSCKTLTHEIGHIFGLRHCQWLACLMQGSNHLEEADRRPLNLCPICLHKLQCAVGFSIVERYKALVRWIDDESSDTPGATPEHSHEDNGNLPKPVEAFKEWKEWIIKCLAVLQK
# The other results are listed elsewhere or left out.
# Compound: CNC(=O)C1=CC=CC=C1NC2=NC(=NC=C2Cl)NC3=C(C=C(C=C3)N4CCOCC4)OC
# Assay: log2 fold change, soluble protein after heating vs DMSO (PISA); higher = thermal stabilisation; K562 cells, 10 uM, 30 min; active = over 0.2 and 3.5 SD of the protein, either way, in both replicates (recomputed)
# Method in brief: (§1)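 K562 cells at 2×10^6 cells/mL were treated with 10 μM compound for 30 min. Aliquots were heated for 3 min across 48°C-58°C, pooled, and extracted in PBS with 0.5% NP-40 at 4°C; soluble protein was the supernatant after 21,000xg for 90 min. Soluble protein was quantified by TMTpro 16plex LC-MS/MS with channel sums equalised, and reported as log2 fold change in thermal stability against DMSO controls, with values from duplicates.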
row,Target,log2 fold change
1,AMMECR1 (UniProt Q9Y4X0),inactive: 0.159
2,AGGF1 (UniProt Q8N302),inactive: -0.175
3,AGAP1 (UniProt Q9UPQ3),inactive: -0.107
4,AIF1 (UniProt P55008),inactive: 0.15
5,ADIPOR2 (UniProt Q86V24),inactive: 0.044
6,AFF4 (UniProt Q9UHB7),inactive: 0.025
7,AHSP (UniProt Q9NZD4),inactive: 0.155
8,ALS2 (UniProt Q96Q42),inactive: -0.059
9,ADCY3 (UniProt O60266),inactive: -0.076
10,ALDH3A2 isoform 2 (UniProt P51648),inactive: 0.004
11,ADPRH (UniProt P54922),inactive: -0.011
12,ADPRM (UniProt Q3LIE5),inactive: -0.053
13,AKNA (UniProt Q7Z591),inactive: -0.074

# Compound: CNC(=O)c1ccc(Nc2ncc(C(F)(F)F)c(NCc3nccnc3N(C)S(C)(=O)=O)n2)cc1 [defactinib]
# Assay: as above
# Method in brief: as §1
row,Target,log2 fold change
1,AFMID isoform 2 (UniProt Q63HM1),inactive: -0.122
2,AMMECR1 (UniProt Q9Y4X0),inactive: -0.047
3,AGTPBP1 isoform 3 (UniProt Q9UPW5),inactive: -0.109
4,AMBRA1 isoform 5 (UniProt Q9C0C7),inactive: -0.077
5,AKR1D1 (UniProt P51857),inactive: 0.124
6,ALG13 isoform 2 (UniProt Q9NP73),inactive: 0.071
7,AGAP1 (UniProt Q9UPQ3),inactive: -0.066
8,ALKBH1 (UniProt Q13686),inactive: 0.029
9,AIF1 (UniProt P55008),inactive: 0.032
10,ADIPOR2 (UniProt Q86V24),inactive: 0.104
11,ADGRD1 isoform 4 (UniProt Q6QNK2),inactive: -0.05
12,ADCY3 (UniProt O60266),inactive: -0.025
13,ALDH3A2 isoform 2 (UniProt P51648),inactive: -0.116
14,ADPRH (UniProt P54922),inactive: -0.076

# Compound: CNc1nc(-c2ccc3c(N)n[nH]c3c2)cc(N2C[C@@H](C(=O)NC3CCCCC3)CC[C@H]2C)n1
# Assay: as above
# Method in brief: as §1
row,Target,log2 fold change
1,ADCY7 (UniProt P51828),inactive: -0.04
2,AMMECR1 (UniProt Q9Y4X0),inactive: 0.078
3,AGTPBP1 isoform 3 (UniProt Q9UPW5),inactive: -0.095
4,AMBRA1 isoform 5 (UniProt Q9C0C7),inactive: -0.01
5,AKR1D1 (UniProt P51857),inactive: 0.074
6,AIG1 (UniProt Q9NVV5),inactive: -0.029
7,ALG13 isoform 2 (UniProt Q9NP73),inactive: -0.032
8,AGAP1 (UniProt Q9UPQ3),inactive: 0.02
9,ALKBH1 (UniProt Q13686),inactive: -0.072
10,ADIPOR2 (UniProt Q86V24),inactive: -0.108
11,ADGRD1 isoform 4 (UniProt Q6QNK2),inactive: -0.214
12,AFF4 (UniProt Q9UHB7),inactive: -0.337
13,ADCY3 (UniProt O60266),inactive: 0.008
14,ALOX5 (UniProt P09917),inactive: -0.029
15,ALDH3A2 isoform 2 (UniProt P51648),inactive: -0.051
16,AMZ2 (UniProt Q86W34),inactive: -0.013
